Data from PMC5727187.
No constants are given. Whether binding was seen depends on the method and setting. Some binding calls cover weakened binding; strength is not graded here. For part of these data: Sequences can lack the tags named with a protein.

By UniProt entry, the sequences of proteins in these tests, tags left out.
UniProt P37657: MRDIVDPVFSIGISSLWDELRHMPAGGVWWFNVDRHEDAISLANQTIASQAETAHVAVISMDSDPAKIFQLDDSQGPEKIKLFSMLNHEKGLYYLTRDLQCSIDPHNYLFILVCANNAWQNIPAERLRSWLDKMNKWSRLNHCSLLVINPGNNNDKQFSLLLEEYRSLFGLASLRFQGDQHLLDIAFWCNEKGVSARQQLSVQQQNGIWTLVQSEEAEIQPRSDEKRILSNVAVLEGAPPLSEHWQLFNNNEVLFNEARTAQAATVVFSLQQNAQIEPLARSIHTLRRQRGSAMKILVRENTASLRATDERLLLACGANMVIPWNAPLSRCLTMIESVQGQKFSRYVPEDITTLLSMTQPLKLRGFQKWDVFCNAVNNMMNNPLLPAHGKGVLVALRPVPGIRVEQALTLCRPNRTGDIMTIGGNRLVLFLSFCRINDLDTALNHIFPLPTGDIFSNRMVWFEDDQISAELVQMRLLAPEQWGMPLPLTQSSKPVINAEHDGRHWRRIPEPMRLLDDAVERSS

Key:
Test in all cases: two-hybrid; Bacterial adenylate cyclase (T25/T18) complementation in E. coli cya BTH101; blue colonies on LB-agar with X-gal and IPTG; more stringent: growth and blue colour on M63B1-agar with 0.4% maltose
[1] = molecular target: T1, BcsF (two-hybrid fusion) (E. coli 1094) (UniProt P0ADJ5)
T1 sequence: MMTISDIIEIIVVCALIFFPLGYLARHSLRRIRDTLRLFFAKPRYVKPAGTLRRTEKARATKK

[2] = molecular target: BcsE (two-hybrid fusion) (E. coli 1094) (UniProt P37657)
[3] = molecular target: T2, BcsA^PilZ (two-hybrid fusion) (E. coli 1094) (UniProt P37653)
T2 sequence: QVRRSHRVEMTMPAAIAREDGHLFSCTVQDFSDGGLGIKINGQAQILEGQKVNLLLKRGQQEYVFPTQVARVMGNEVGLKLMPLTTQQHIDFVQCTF

Measured: binding

BcsE (two-hybrid fusion) (from UniProt P37657 1-523)
binds: all assays above
